Measured values from publication PMC5374404.
Results are given in words; binding and its absence hold for the method and conditions named. Sequences can lack the tags named with a protein.

Target: T1, Drosophila Sak/PLK4 Polo-Box-3 domain (aa 657-745), tag cleaved (Drosophila melanogaster) (UniProt O97143)
T1 sequence: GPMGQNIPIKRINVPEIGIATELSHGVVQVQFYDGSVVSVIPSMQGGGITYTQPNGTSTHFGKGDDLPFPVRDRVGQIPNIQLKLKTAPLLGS
Experiment: SEC; analytical gel filtration, S75 10/300; untagged PB3 and N-terminally His-lipoyl tagged CCD mixed 30 min before injection, 500 µM each; 50 mM Tris pH 7.5, 150 mM NaCl, 2 mM DTT, 1 ml/min; both purified

binding: no binding (tested: 500 µM)
Binder: NKSDLAALVSLVESVRHEQQQLRNLCEMILEQQQRAK (domain or fragment, UniProt Q9XZ31 193-229) [His-lipoyl-tagged Drosophila Ana2 coiled-coil domain (aa 193-229)]
